Measurements reported in article PMC8104946.
No constants are given. Whether binding was seen depends on the method and setting. In cells and extracts the contact can be indirect. A result given as binding can be weak or reduced; the word gives no strength. Tags and fused reporters may be left off the sequences shown.

Target: T1, CTPS-HA (Drosophila) (UniProt Q9VUL1)
T1 sequence: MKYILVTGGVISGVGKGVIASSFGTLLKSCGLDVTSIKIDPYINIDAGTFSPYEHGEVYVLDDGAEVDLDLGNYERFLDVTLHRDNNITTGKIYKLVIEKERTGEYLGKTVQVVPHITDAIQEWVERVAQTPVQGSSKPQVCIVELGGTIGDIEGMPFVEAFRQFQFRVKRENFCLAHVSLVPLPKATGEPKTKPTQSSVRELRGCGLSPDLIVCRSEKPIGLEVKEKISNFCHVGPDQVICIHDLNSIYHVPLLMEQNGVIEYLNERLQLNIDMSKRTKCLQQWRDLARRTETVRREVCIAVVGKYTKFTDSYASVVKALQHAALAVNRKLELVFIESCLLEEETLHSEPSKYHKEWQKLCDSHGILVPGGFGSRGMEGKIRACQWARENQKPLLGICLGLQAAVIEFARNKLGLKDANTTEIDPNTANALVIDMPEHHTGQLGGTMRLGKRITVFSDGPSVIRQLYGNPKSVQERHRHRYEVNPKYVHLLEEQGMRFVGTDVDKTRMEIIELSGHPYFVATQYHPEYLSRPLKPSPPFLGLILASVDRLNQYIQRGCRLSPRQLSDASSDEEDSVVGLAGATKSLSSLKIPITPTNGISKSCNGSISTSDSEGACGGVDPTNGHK
Test: co-IP; S2 cells 24 hours after transfection with CTPS-HA-T2A-Catsup-V5 or CTPS-HA-T2A-Pdcd4-V5; lysate on anti-HA magnetic beads or IgG bound Protein A/G magnetic beads overnight at 4 °C; blot with anti-V5

binding: binds
Substance: Pdcd4-V5 (Drosophila)
